Source: PubChem BioAssay (Tox21)
Values joined by “and” are separate entries in the source; they are usually repeats but may differ in a detail not shown here. Equal values may be shown once. Inconclusive means that the source gave no clear call. Such entries were picked first, then a sample of the others. Potencies beside an inconclusive call are fits to weak or partial responses and may not hold up. Active and inactive are the calls of the source. Calls come from the whole dose curve; as a rule, active = well fitted curve in the direction sought with a large enough effect in the repeat runs; inconclusive = weak or mixed curves; inactive = no such curve, though single readings can be large; an effect the other way counts as inactive or inconclusive.

Chains of the proteins cited; added tags and fusions are not shown. Lines headed by an entry give the natural chain unless they say otherwise; changes in a name come on top.
UniProt P11712, whole entry, looked up: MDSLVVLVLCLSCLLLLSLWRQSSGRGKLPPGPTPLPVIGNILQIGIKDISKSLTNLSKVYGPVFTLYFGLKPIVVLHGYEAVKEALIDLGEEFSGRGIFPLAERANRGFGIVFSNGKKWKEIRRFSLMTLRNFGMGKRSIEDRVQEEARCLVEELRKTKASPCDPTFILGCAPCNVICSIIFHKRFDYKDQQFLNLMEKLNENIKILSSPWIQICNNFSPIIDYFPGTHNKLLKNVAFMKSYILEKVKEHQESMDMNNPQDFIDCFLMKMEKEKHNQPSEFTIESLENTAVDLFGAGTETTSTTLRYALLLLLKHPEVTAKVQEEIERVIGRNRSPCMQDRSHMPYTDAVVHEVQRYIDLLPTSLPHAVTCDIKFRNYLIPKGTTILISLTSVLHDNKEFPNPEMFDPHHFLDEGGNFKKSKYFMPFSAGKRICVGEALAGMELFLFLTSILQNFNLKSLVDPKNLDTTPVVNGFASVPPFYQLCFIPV
UniProt P05177, whole entry, looked up: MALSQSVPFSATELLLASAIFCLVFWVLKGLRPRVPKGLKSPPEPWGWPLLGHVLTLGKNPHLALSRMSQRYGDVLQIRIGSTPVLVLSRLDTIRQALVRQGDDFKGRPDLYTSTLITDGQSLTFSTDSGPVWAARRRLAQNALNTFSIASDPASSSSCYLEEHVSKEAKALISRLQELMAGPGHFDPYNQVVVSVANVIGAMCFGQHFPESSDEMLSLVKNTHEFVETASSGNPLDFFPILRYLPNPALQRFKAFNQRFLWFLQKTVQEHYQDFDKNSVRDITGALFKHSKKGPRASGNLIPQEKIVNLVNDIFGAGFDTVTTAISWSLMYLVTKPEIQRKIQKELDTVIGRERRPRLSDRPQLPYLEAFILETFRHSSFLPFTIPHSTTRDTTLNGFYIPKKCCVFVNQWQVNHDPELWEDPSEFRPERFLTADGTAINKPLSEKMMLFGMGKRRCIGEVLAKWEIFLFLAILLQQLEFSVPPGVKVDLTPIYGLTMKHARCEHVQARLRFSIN
UniProt Q12809: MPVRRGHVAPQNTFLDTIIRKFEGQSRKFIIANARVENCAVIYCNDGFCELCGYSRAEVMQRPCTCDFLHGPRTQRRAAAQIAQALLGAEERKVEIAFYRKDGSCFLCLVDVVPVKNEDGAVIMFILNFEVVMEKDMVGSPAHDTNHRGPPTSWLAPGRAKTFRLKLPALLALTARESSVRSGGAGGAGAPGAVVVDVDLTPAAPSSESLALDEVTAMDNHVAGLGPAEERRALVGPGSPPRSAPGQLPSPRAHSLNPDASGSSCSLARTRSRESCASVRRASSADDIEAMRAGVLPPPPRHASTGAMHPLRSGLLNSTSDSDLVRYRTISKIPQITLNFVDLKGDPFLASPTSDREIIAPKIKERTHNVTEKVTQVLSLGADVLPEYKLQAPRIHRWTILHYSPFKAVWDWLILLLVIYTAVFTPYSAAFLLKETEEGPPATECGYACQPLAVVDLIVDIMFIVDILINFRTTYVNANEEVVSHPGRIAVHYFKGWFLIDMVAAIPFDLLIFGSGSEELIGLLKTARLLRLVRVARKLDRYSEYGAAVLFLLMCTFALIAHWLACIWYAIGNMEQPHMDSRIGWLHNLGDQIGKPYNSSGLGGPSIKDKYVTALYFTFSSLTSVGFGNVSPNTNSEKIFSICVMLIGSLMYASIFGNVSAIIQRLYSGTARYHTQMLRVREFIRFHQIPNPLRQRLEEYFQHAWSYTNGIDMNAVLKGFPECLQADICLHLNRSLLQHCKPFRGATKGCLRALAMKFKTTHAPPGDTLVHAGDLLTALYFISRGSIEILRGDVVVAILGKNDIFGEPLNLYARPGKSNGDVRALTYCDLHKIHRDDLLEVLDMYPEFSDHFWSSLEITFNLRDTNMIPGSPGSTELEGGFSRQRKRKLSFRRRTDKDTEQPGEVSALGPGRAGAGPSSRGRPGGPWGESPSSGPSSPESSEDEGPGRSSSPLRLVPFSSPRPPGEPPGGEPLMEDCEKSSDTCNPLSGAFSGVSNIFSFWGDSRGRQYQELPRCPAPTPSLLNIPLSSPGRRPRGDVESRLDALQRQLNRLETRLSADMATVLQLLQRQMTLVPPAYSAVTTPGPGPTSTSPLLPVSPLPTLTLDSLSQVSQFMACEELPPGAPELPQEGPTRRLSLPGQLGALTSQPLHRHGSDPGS
UniProt P08684, whole entry, looked up: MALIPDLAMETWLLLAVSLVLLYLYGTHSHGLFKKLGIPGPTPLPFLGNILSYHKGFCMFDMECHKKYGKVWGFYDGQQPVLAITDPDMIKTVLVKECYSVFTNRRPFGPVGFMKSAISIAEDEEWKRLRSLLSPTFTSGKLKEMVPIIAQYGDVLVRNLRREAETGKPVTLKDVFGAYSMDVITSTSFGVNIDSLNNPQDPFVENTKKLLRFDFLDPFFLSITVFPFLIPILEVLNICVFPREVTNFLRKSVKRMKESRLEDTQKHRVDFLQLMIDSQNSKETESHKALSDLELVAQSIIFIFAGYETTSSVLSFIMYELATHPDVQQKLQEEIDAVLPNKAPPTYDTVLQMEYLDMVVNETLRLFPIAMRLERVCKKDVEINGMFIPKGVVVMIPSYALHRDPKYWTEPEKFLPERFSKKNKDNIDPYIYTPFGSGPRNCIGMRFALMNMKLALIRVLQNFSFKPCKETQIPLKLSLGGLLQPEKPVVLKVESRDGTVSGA

target: Cytochrome P450 2C9 (Homo sapiens) (UniProt P11712); assay: Cytochrome P450 Family 2 Subfamily C Member 9 (CYP2C9) small molecule antagonists: luciferase reporter qHTS assay (AID 1671198); details: P450-Glo CYP2C9 enzyme assay, luciferin luminescence; series mostly up to 115 µM
Procedure, shortened: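 P450-Glo proluciferin substrate with CYP2C9 enzyme; 10 min RT preincubation, then NADPH regeneration 1 h at 37C; luciferin detection reagent 20 min RT, luminescence in relative luminescence units.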
Note: nearly all actives have a fitted effect of over 50% in size.
Potency is the fitted concentration of half-maximal effect.

| Structure (SMILES) | Potency |
| --- | --- |
| CN1CC[C@H](c2c(O)cc(O)c3c(=O)cc(-c4ccccc4Cl)oc23)[C@H](O)C1 | inconclusive: 19.5 µM [inhibitor, partial curve] |
| CN1CCN(CCCN2c3ccccc3Sc3ccc(S(=O)(=O)N(C)C)cc32)CC1 | inconclusive: 17.4 µM [inhibitor, partial curve] |
| NC(N)=Nc1nc(CSCC/C(N)=N/S(N)(=O)=O)cs1 | inactive |
| CN1CCCN(C(c2ccccc2)c2ccc(Cl)cc2)CC1 (stereo not given) | inactive |
| CCCCCCCCCc1ccc(OCCOCCO)cc1 | active: 10.6 µM |
| CCCCCCCCC=O | inconclusive: 63.3 µM [inhibitor, partial curve, poor fit] |
| Cc1cc(N)n(-c2ccccc2)n1 | inconclusive: 39.9 µM [inhibitor, partial curve] |
| COc1ccc(C(=O)NCc2ccc(OCCN(C)C)cc2)cc1OC | inactive |
| Brc1cc(Br)c(Oc2cc(Br)c(Br)cc2Br)cc1Br | inconclusive: 15.5 µM [inhibitor, partial curve] |

target: Cytochrome P450 1A2 (Homo sapiens) (UniProt P05177); assay: Cytochrome P450 Family 1 Subfamily A Member 2 (CYP1A2) small molecule antagonists: luciferase reporter qHTS assay (AID 1671199); details: P450-Glo CYP1A2 enzyme, luciferin luminescence, 1 h; series mostly up to 115 µM
Procedure, shortened: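 Quantitative high-throughput format using the P450-Glo CYP1A2 system. Reaction initiated by NADPH regeneration solution, 1 h at room temperature, then stopped with detection reagent; luminescence measured 20 min later.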

| Structure (SMILES) | Potency |
| --- | --- |
| O=C1CC2CC1C1CCCC21 (stereo not given) | inconclusive: 71 µM [inhibitor, partial curve, poor fit] |
| CN1CCN(CCCN2c3ccccc3Sc3ccc(S(=O)(=O)N(C)C)cc32)CC1 | inactive |
| CN1CCN(CCC(=O)N2c3ccccc3Sc3ccc(C(F)(F)F)cc32)CC1 | inconclusive: 27.5 µM [inhibitor, partial curve] |
| C#CCN(C)Cc1ccccc1 | inconclusive: 39.9 µM [inhibitor, partial curve] and inconclusive: 30.9 µM [inhibitor, partial curve] |
| CCN(CCN)c1cccc(C)c1 | active: 11.4 µM and active: 20 µM |
| CNC(=O)c1cc(Oc2ccc(NC(=O)Nc3ccc(Cl)c(C(F)(F)F)c3)cc2)ccn1 | inactive |

target: Voltage-gated inwardly rectifying potassium channel KCNH2 (Homo sapiens) (UniProt Q12809); assay: Human Ether-a-go-go-Related Gene (hERG) channel small molecule antagonists: fluorescence cell-based qHTS assay (AID 1671200); details: hERG-U2OS cells, FluxOR thallium flux fluorescence; series mostly up to 76.8 µM
Procedure, shortened: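 Quantitative HTS in hERG-U2OS cells: thallium entry through the channel reports activity, read as continuous 480/540 nm fluorescence over 2 min after stimulus addition.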

| Structure (SMILES) | Potency |
| --- | --- |
| CCCCOCCOC(=O)c1ccccc1C(=O)OCCOCCCC | inconclusive: 21.4 µM [inhibitor, partial curve] |
| OC(CCN1CCCC1)(c1ccccc1)C1CCCCC1 (stereo not given) | inconclusive: 21.3 µM [inhibitor, partial curve] |
| CN1CCN(CCCN2c3ccccc3Sc3ccc(S(=O)(=O)N(C)C)cc32)CC1 | active: 5.35 µM |
| OCCN1CCN(CCCN2c3ccccc3Sc3ccc(Cl)cc32)CC1 | active: 2.68 µM |
| CCCCCCCCCCCCCCCC[N+](C)(C)CCN(Cc1ccc(OC)cc1)c1ncccn1 | active: 0.338 µM |
| CCN(CCN)c1cccc(C)c1 | inconclusive: 49.4 µM [inhibitor, partial curve, poor fit] and active: 24.5 µM |
| CCCCCCCCOc1ccccc1C(=O)Nc1ccc(C(=O)OCC[N+](C)(CC)CC)cc1 | inconclusive: 47.7 µM [inhibitor, partial curve, poor fit] |
| CNC(=O)c1cc(Oc2ccc(NC(=O)Nc3ccc(Cl)c(C(F)(F)F)c3)cc2)ccn1 | inconclusive: 19 µM [inhibitor, partial curve] |
| CN1C[C@H](C(=O)N[C@]2(C)O[C@@]3(O)[C@@H]4CCCN4C(=O)[C@H](Cc4ccccc4)N3C2=O)C[C@@H]2c3cccc4[nH]cc(c34)C[C@H]21 | inconclusive: 19 µM [inhibitor, partial curve] |

target: Cytochrome P450 3A4 (Homo sapiens) (UniProt P08684); assay: Cytochrome P450 Family 3 Subfamily A Member 4 (CYP3A4) small molecule antagonists: luciferase reporter qHTS assay (AID 1671201); details: P450-Glo CYP3A4 enzyme, luciferin luminescence, 1 h; series mostly up to 115 µM
Procedure, shortened: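 Inhibition of CYP3A4 is measured as loss of light: the enzyme converts a proluciferin substrate to luciferin, detected luminescently. Reaction ran 1 h at room temperature with NADPH regeneration after a 10 min compound preincubation.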

| Structure (SMILES) | Potency |
| --- | --- |
| CCCCOCCOC(=O)c1ccccc1C(=O)OCCOCCCC | active: 12.4 µM and active: 17.8 µM |
| C/C=C/C=C/COC(=O)C(C)C | active: 28.3 µM |
| COc1ccc2cc(S(=O)(=O)N[C@H](CC(=O)N[C@H](Cc3ccc(CN4[C@H](C)CCC[C@@H]4C)cc3)C(=O)N(C)C(C)C)c3ccc4c(c3)OCO4)ccc2c1 | active: 0.0949 µM |
| CCCCCCCCCc1ccc(OCCOCCO)cc1 | active: 8.39 µM |
| CCCCCCCCOc1ccccc1C(=O)Nc1ccc(C(=O)OCC[N+](C)(CC)CC)cc1 | inconclusive: 7.76 µM [inhibitor, full curve] |
| C=C[Si](OC(=C)C)(OC(=C)C)OC(=C)C | inconclusive: 79.6 µM [inhibitor, partial curve, poor fit] |
